Laboratory results taken from patent US10260060B2, “Genetically modified phenylpyruvate decarboxylase, processes to prepare, and uses thereof” (Dow Global Technologies LLC, priority 2014, dated 2019).
Substitutions are numbered along the chain they refer to. For at least one compound, name, drawing or mass did not settle the structure.

Key:
[1] = biological target: T1, Azospirillum brasilense phenylpyruvate decarboxylase (AbPPDC) variant F385L, SEQ ID 8 (Azospirillum brasilense, UniProt P51852, F385L); assay: HTP AbPPDC coupled enzyme assay (ADH6/NADPH), 2-ketoacid decarboxylation kinetics, F385L; assay type: biochemical; settings: for h (Hill coefficient): pH 6.8, 30° C, Hill equation, mean ± standard error
T1 construct: made in house; host or cells: E. coli BL21(DE3)
T1 sequence (P51852 1-545 F385L): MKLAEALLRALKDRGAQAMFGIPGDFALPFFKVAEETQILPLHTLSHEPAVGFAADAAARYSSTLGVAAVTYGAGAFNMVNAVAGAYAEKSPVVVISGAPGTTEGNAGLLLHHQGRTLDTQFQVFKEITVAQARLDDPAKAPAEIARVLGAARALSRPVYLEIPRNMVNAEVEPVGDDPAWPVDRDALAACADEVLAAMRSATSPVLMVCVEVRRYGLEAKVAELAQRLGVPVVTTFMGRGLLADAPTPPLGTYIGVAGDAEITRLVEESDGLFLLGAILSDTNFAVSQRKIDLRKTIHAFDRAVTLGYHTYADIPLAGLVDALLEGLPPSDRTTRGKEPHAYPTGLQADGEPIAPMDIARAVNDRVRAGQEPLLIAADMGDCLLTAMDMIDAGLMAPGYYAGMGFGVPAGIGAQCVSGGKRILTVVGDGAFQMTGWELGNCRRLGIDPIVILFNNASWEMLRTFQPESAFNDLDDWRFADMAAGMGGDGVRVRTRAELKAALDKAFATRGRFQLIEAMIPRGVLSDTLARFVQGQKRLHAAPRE
Experimental: (§1) The evaluation of the AbPPDC variants is performed in two steps using the high-throughput enzyme assay described hereinbelow. Initially, all the variants are tested for activity against a single high concentration (2 mM) of 2-KH and 2-KN (as shown in Table 1). Following the initial evaluation, detailed kinetic analysis is performed on a select number of variants to determine the maximal rate (kcat), substrate concentration yielding half maximal rate (K0.5, equivalent of KM for enzymes following Michaelis-Menten kinetics), and the catalytic efficiency of the enzyme (kcat/K0.5) against 2-KO and 2-KN (as shown in Table 2). AbPPDC variants, having higher specificity (higher kcat/K0.5) for 2-KN, will be efficient in producing octanal and chemicals derived from it inside the cells.
To evaluate the substrate specificity of the wild type AbPPDC and its variants listed in Table 1, genes of all the proteins are expressed in E. coli cells separately and the protein products are isolated from the cells. The gene sequence of the Azospirillum brasilense phenylpyruvate decarboxylase (GenBank: Accession no. L26240) is downloaded from the NCBI database. Codons of 13 additional amino acids that include six (6) histidines (his) are added upstream of the Met-1 codon of the AbPPDC gene sequence. Such a modification allows expression of a Histidine-tagged AbPPDC having 13 additional amino acids on the N-terminus. […]
(§2) A high-throughput AbPPDC coupled enzyme assay is developed for evaluating the substrate specificity of AbPPDC variants. […] The initial velocities of the AbPPDC catalyzed reactions are determined from the rates of oxidation of reduced nicotinamide adenine dinucleotide phosphate (NADPH) occurring during the ADH6 catalyzed reduction of aldehyde.
The HTP screening assay involves incubating 2 mM 2-KH or 2 mM 2-KN with 0.5 mM thiamine diphosphate, 0.35 mM NADPH, 4.7 micrograms (μg) of yeast ADH6 (GenBank: Accession No. NP 014051.3) and 0.3 milligrams per milliliter (mg/mL) bovine serum albumin (BSA) in AbPPDC assay buffer (50 mM 3-(N-morpholino)propanesulfonic acid, pH 6.8, containing 2.5 mM magnesium chloride (MgCl2)) at 30° C. […] The plate containing the 200 μL of reaction mixture is centrifuged at 2500×g for 15 sec and the absorbance change of the reaction mixture followed spectrophotometrically at 340 nm on a BioTek™ plate reader, pre-equilibrated at 30° C. Initial velocity of the enzyme reaction is calculated using the rate of NADPH consumption at 340 nm and the extinction coefficient of NADPH (6.22 mM^−1 cm^−1). The activity of all the variants is normalized with the amount of enzyme present in the reaction mixture and expressed as nanomoles per minute per milligram (nmol·min^−1·mg^−1). […]

[2] = biological target: T2, Azospirillum brasilense phenylpyruvate decarboxylase (AbPPDC) variant M461L, SEQ ID 18 (Azospirillum brasilense, UniProt P51852, M461L); assay: HTP AbPPDC coupled enzyme assay (ADH6/NADPH), 2-ketoacid decarboxylation kinetics, M461L; assay type: biochemical
T2 construct: made in house; host or cells: E. coli BL21(DE3)
T2 sequence (P51852 1-545 M461L): T1 sequence (P51852 1-545 F385L) with L385F, M461L
Experimental: as §1
To evaluate the substrate specificity of the wild type AbPPDC and its variants listed in Table 1, genes of all the proteins are expressed in E. coli cells separately and the protein products are isolated from the cells. […]
as §2, with “aldehyde. […]” for “aldehyde.”

Compound | Spec (specificity: ratio of kcat/K0.5 for 2-KN to that for 2-KO) ([1]; 2-KN over 2-KO) | h (Hill coefficient) [1] | preference for 2-KN over 2-KO, fold higher than that of AbPPDC ([1]; relative to wild type AbPPDC) [fold] | Spec (specificity: ratio of kcat/K0.5 for 2-KN to that for 2-KO) ([2]; 2-KN over 2-KO) | h (Hill coefficient) ([2]; pH 6.8, 30° C, Hill equation, mean ± standard error)
CCCCCCCC(=O)C(=O)O [2-KN, 2-ketononanoate] | 9.1 | 2.7 ± 0.4 | 5 | 3.3 | 
CCCCCCC(=O)C(=O)O [2-KO, 2-ketooctanoate] |  | 2.3 ± 0.8 |  |  | 2.6 ± 0.4
